This experiment addresses FLAG-S-tagged YAP1 (UniProt P46937). Nature of the experiment: affinity purification with mass spectrometry; tandem affinity purification (anti-FLAG affinity gel, 3x FLAG peptide elution, then S-protein agarose) from HCT116 cells stably expressing FLAG-S-YAP1, treated with MG132 (10 uM, 10 h); NETN buffer (20 mM Tris-HCl, 300 mM NaCl, 1 mM EDTA, 0.5% NP-40, pH 8.0), 4 C; LC-MS/MS.

Results are given in words; binding and its absence hold for the method and conditions named. Binding seen in cells or lysates may run through a third protein. These calls come from enrichment with a bait or labelling near it, and not all partners need be listed.

B1: deubiquitinating enzyme 3 (DUB3), endogenous (enzyme, UniProt Q6R6M4 1-530)
chain: MEDDSLYLGGEWQFNHFSKLTSSRPDAAFAEIQRTSLPEKSPLSSEARVDLCDDLAPVARQLAPRKKLPLSSRRPAAVGAGLQNMGNTCYENASLQCLTYTPPLANYMLSREHSQTCQRPKCCMLCTMQAHITWALHSPGHVIQPSQALAAGFHRGKQEDAHEFLMFTVDAMKKACLPGHKQVDHHSKDTTLIHQIFGGCWRSQIKCLHCHGISDTFDPYLDIALDIQAAQSVKQALEQLVKPEELNGENAYHCGLCLQRAPASKTLTLHTSAKVLILVLKRFSDVTGNKLAKNVQYPECLDMQPYMSQQNTGPLVYVLYAVLVHAGWSCHDGHYFSYVKAQEGQWYKMDDAKVTACSITSVLSQQAYVLFYIQKSEWERHSESVSRGREPRALGAEDTDRRATQGELKRDHPCLQAPELDERLVERATQESTLDHWKFPQEQNKTKPEFNVRKVEGTLPPNVLVIHQSKYKCGMKNHHPEQQSSLLNLSSTTRTDQESVNTGTLASLQGRTRRSKGKNKHSKRALLVCQ
As to B1, the binding result is on record as “binds”.
